# From the supplement of paper PMC10689618
# Structures can show the parent of a compound that is named as a salt. The list shows a part of the results. Many values rest on one well or one pass, so single values are uncertain.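 Labelled rat cortical synaptosomes were engulfed by primary human fetal astrocytes. Engulfment equaled a red/green ratio, corrected for calcein live-cell signal and normalized to the plate median. Compounds were toxic when calcein dropped over 30%, and reduced phagocytosis when below 70% of the median above 5 µM.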
# Columns and labels:
# Human fetal astrocytes [1] = test: loss of total cells relative to no-compound high-control median (toxicity); higher = more toxic (fewer cells); conditions: 24 h
# Human fetal astrocytes [2] = test: synaptosome phagocytosis (pHrodo/calcein intensity ratio) relative to plate median of data wells; higher = more phagocytosis; conditions: 24 h
Structure (SMILES),loss of total cells (Human fetal astrocytes [1]; 1.39 µM),loss of total cells (Human fetal astrocytes [1]; 2.78 µM),loss of total cells (Human fetal astrocytes [1]; 5.56 µM),loss of total cells (Human fetal astrocytes [1]; 11.11 µM),loss of total cells (Human fetal astrocytes [1]; 22.22 µM),synaptosome phagocytosis (Human fetal astrocytes [2]; 1.39 µM),synaptosome phagocytosis (Human fetal astrocytes [2]; 2.78 µM),synaptosome phagocytosis (Human fetal astrocytes [2]; 5.56 µM),synaptosome phagocytosis (Human fetal astrocytes [2]; 11.11 µM),synaptosome phagocytosis (Human fetal astrocytes [2]; 22.22 µM)
Cc1cn([C@H]2C[C@H](N=[N+]=[N-])[C@@H](CO)O2)c(=O)[nH]c1=O [3'-Azido-3'-deoxythymidine],-3.3%,-11.1%,-14.3%,-4%,-3.4%,150%,117%,113%,119%,91.8%
CCCCCCCCCCCCCCCCCCNC(=O)OCC(COP(=O)([O-])OCC[n+]1ccsc1)OC (stereo not given),12.7%,-3.9%,3.4%,-2.7%,-23.9%,87.3%,76.3%,117%,91.4%,127%
CN(Cc1cnc2nc(N)nc(N)c2n1)c1ccc(C(=O)N[C@@H](CCC(=O)O)C(=O)O)cc1 [Methotrexate],-23.9%,-15.3%,-10.6%,-23.8%,6.4%,89.5%,88.2%,83.8%,75%,80.6%
COc1cccc(OC)c1OCCNCC1CSc2ccccc2O1 (stereo not given) [Benoxathian hydrochloride],-8.1%,-8.1%,-10.6%,-11.2%,4.9%,96.3%,114%,86.6%,76.9%,83.6%
CC(=N)NCc1cccc(CN)c1 [1400W dihydrochloride],-31.4%,-14.7%,-6.2%,-21.8%,-42%,110%,114%,105%,102%,132%
Oc1ccc(/C=C/c2cc(O)cc(O)c2)cc1 [Resveratrol],-22%,4.5%,-6.7%,-7.3%,23.9%,105%,119%,120%,114%,94%
COc1ccccc1N1CCN(CC(O)COc2cccc3ccccc23)CC1 (stereo not given) [Naftopidil dihydrochloride],-8.1%,-4.1%,8%,-7.6%,13.1%,112%,90.7%,119%,105%,84.7%
CC(N)(C(=O)O)c1ccc(C(=O)O)cc1 (racemic) [(±)-alpha-Methyl-4-carboxyphenylglycine],-19.4%,-8.6%,12.7%,21.9%,10.3%,98.5%,88.4%,111%,76.8%,96.6%
CN1CCC[C@@H]1CCO[C@](C)(c1ccccc1)c1ccc(Cl)cc1 [Clemastine fumarate],-13.2%,-1.2%,-11.5%,-7.6%,8.6%,98.7%,83.5%,58.1%,87.1%,65.9%
"Cc1cn(C2C=CC(CO)O2)c(=O)[nH]c1=O (stereo not given) [2',3'-didehydro-3'-deoxythymidine]",2.9%,0%,-8.2%,-1.3%,3.2%,112%,80.5%,89.7%,97.1%,126%
OCCN1CCN(CC/C=C2/c3ccccc3Sc3ccc(C(F)(F)F)cc32)CC1 [cis-(Z)-Flupenthixol dihydrochloride],2.1%,-19.7%,-2.5%,0.4%,20.8%,83.4%,104%,119%,80.2%,88.4%
CSc1ccc2c(c1)C(N1CCN(C)CC1)Cc1ccccc1S2 (stereo not given) [Methiothepin mesylate],-1.4%,-9.5%,-5.2%,3.8%,41.1%,126%,83.6%,94.4%,74.8%,78.7%
NC(=O)c1ncn([C@@H]2O[C@H](CO)[C@@H](O)[C@H]2O)c1O [Mizoribine],-0.5%,10.4%,-2.3%,18.1%,12.1%,130%,150%,78.2%,123%,127%
CC(Cc1ccc(O)c(O)c1)(NN)C(=O)O (stereo not drawn) [S-(-)-Carbidopa],-5.4%,-7.7%,-13.2%,-0.4%,7.2%,106%,112%,91.4%,102%,96.8%
NCCNS(=O)(=O)c1cccc2cnccc12 [H-9 dihydrochloride],4%,4.8%,4.1%,-17.5%,-7.1%,108%,101%,92.3%,81.3%,90.2%
O=Nc1c(-c2c(O)[nH]c3ccccc23)[nH]c2ccccc12 [Indirubin-3'-oxime],7.9%,0%,17.3%,7.6%,13.6%,103%,83.1%,77.8%,63.2%,38%
CC(=O)O[C@H]1C[C@@]2(C)[C@@H](C[C@@H](O)[C@H]3[C@@]4(C)CC[C@@H](O)[C@@H](C)[C@@H]4CC[C@@]32C)/C1=C(\CCC=C(C)C)C(=O)O [Fusidic acid sodium],9.6%,-29.1%,-9.9%,-19.3%,5.6%,82.1%,95.6%,86.3%,112%,115%
Oc1cc(O)cc(/C=C/c2ccc(O)c(O)c2)c1 [Piceatannol],-9%,2.3%,21.1%,14.3%,7.5%,109%,90.4%,81.4%,66.6%,39.9%
Brc1c(NC2=NCCN2)ccc2nccnc12,-15.8%,-6.9%,-2.2%,-11.9%,-35.4%,113%,118%,104%,128%,102%
"O=c1[nH]ccc2c(O)cccc12 [1,5-Isoquinolinediol]",-3.3%,5.9%,36.2%,26.7%,33.6%,120%,137%,120%,113%,113%

Structure (SMILES),loss of total cells (Human fetal astrocytes [1]; 1.39 µM),loss of total cells (Human fetal astrocytes [1]; 2.78 µM),loss of total cells (Human fetal astrocytes [1]; 5.56 µM),loss of total cells (Human fetal astrocytes [1]; 11.11 µM),loss of total cells (Human fetal astrocytes [1]; 22.22 µM),synaptosome phagocytosis (Human fetal astrocytes [2]; 1.39 µM),synaptosome phagocytosis (Human fetal astrocytes [2]; 2.78 µM),synaptosome phagocytosis (Human fetal astrocytes [2]; 5.56 µM),synaptosome phagocytosis (Human fetal astrocytes [2]; 11.11 µM),synaptosome phagocytosis (Human fetal astrocytes [2]; 22.22 µM)
COc1ccc(CCN(C)CCc2ccc(OC)c(OC)c2)cc1OC [YS-035 hydrochloride],-29.5%,0.9%,10.1%,-15.7%,1.6%,81.5%,98.3%,84.1%,109%,63.1%
CN1CCN(C2Cc3ccccc3Sc3ccc(Cl)cc32)CC1 (racemic) [(±)-Octoclothepin maleate],-28.9%,4.1%,1.4%,-3.8%,24.3%,97.2%,108%,92.2%,79.7%,52.9%
Oc1ccccc1O [Pyrocatechol],-18%,-6.9%,-9.7%,-18.4%,18.4%,89.1%,81.6%,76.8%,89.7%,81.7%
CCCc1c(OCCCOc2ccc(OCC(=O)O)cc2)ccc(C(C)=O)c1O,17.2%,-21.4%,3.3%,-20.2%,0.8%,83.7%,113%,89.2%,69.5%,96.7%
Cc1nc2c([nH]1)c(=O)n(C)c(=O)n2Cc1ccco1 [Furafylline],3.8%,-10.3%,-2.5%,-20.2%,13.6%,118%,119%,89.3%,120%,105%
COc1cc(C(O)C(=O)O)ccc1O (racemic) [(±)-Vanillylmandelic acid],1.3%,-7.7%,5.8%,-22.9%,-2.4%,97.6%,136%,102%,89.4%,104%
O=c1[nH]c(=O)c2nc3ccccc3nc2[nH]1 [Alloxazine],-19.8%,-7.5%,16.1%,-2.2%,4.1%,85.4%,93.2%,102%,71.5%,91.9%
COc1cc2c(cc1O)CC[C@@H]1[C@@H]2CC[C@]2(C)[C@@H](O)CC[C@@H]12 [2-methoxyestradiol],-1.4%,12.2%,-10.8%,0%,-0.9%,90.3%,93.3%,89.5%,88.2%,90.3%
O=C(Nc1ccccc1)c1cc([N+](=O)[O-])ccc1Cl,-4.3%,7.7%,2.3%,10.5%,20.6%,75.1%,87%,90.2%,64.9%,91.7%
Oc1ccc(-c2nc(-c3ccc(F)cc3)c(-c3ccncc3)[nH]2)cc1,-12.1%,-17.1%,-10.6%,-9.4%,13.2%,134%,101%,88.5%,113%,81.8%
C[C@]12C=CC(=O)C=C1CC[C@H]1[C@@H]3C[C@@H](O)[C@](O)(C(=O)CO)[C@@]3(C)C[C@H](O)[C@@]12F [Triamcinolone],-39.4%,-36.2%,-27.5%,-38.7%,-61.7%,77.2%,93%,98%,112%,128%
NC(=O)OCC(COC(N)=O)c1ccccc1 [Felbamate],-8.8%,-17.9%,4.9%,-4.9%,-4.8%,89.3%,92.9%,116%,69.7%,94.3%
O=C(O)CN(CCOCCOCCN(CC(=O)O)CC(=O)O)CC(=O)O,-11.3%,-15.4%,-9.1%,-28.3%,4%,85.3%,80.4%,116%,95.5%,83.9%
"CCCCCCN(CCCCCC)C(=O)Cc1c(-c2ccc(F)cc2)[nH]c2ccccc12 [N,N-Dihexyl-2-(4-fluorophenyl)indole-3-acetamide]",0.4%,-4.3%,-4.1%,3.1%,6.4%,99.2%,101%,90.6%,48.4%,95.6%
CC(C)N(CCC(=O)c1ccc2ccccc2c1)Cc1ccccc1,-8.1%,5.9%,20.2%,29.5%,33.6%,85%,122%,137%,91.6%,101%
Cc1ccc(S(=O)(=O)N[C@@H](Cc2ccccc2)C(=O)CCl)cc1 [N-p-Tosyl-L-phenylalanine chloromethyl ketone],-23.3%,-14.7%,-2.2%,-1.1%,65%,82.3%,111%,97%,58.7%,31.4%
CC[C@]1(O)C[C@@H]2CN(CCc3c([nH]c4ccccc34)[C@@](C(=O)OC)(c3cc4c(cc3OC)N(C)[C@H]3[C@@](O)(C(=O)OC)[C@H](OC(C)=O)[C@]5(CC)C=CCN6CC[C@]43[C@@H]65)C2)C1 [Vinblastine sulfate salt],0.9%,6.9%,22.5%,34.1%,-5.8%,86.7%,105%,114%,120%,102%
"O=C(O)[C@H]1C[C@H](C(=O)O)N1 (relative stereo) [trans-Azetidine-2,4-dicarboxylic acid]",-15%,-15.3%,-12.4%,-9.4%,-7.9%,82%,82.5%,94.6%,97.8%,101%
"O=Nc1ccc2oc(=O)ccc2c1 [6-Nitroso-1,2-benzopyrone]",-21.3%,9.5%,-6.1%,8.6%,24.3%,109%,108%,81.9%,63.3%,103%

# Ordered by formula weight (ascending): some entries from above
Structure (SMILES),loss of total cells (Human fetal astrocytes [1]; 1.39 µM),loss of total cells (Human fetal astrocytes [1]; 2.78 µM),loss of total cells (Human fetal astrocytes [1]; 5.56 µM),loss of total cells (Human fetal astrocytes [1]; 11.11 µM),loss of total cells (Human fetal astrocytes [1]; 22.22 µM),synaptosome phagocytosis (Human fetal astrocytes [2]; 1.39 µM),synaptosome phagocytosis (Human fetal astrocytes [2]; 2.78 µM),synaptosome phagocytosis (Human fetal astrocytes [2]; 5.56 µM),synaptosome phagocytosis (Human fetal astrocytes [2]; 11.11 µM),synaptosome phagocytosis (Human fetal astrocytes [2]; 22.22 µM)
O=C(O)CN(CCOCCOCCN(CC(=O)O)CC(=O)O)CC(=O)O,-11.3%,-15.4%,-9.1%,-28.3%,4%,85.3%,80.4%,116%,95.5%,83.9%
CCCc1c(OCCCOc2ccc(OCC(=O)O)cc2)ccc(C(C)=O)c1O,17.2%,-21.4%,3.3%,-20.2%,0.8%,83.7%,113%,89.2%,69.5%,96.7%
CC[C@]1(O)C[C@@H]2CN(CCc3c([nH]c4ccccc34)[C@@](C(=O)OC)(c3cc4c(cc3OC)N(C)[C@H]3[C@@](O)(C(=O)OC)[C@H](OC(C)=O)[C@]5(CC)C=CCN6CC[C@]43[C@@H]65)C2)C1 [Vinblastine sulfate salt],0.9%,6.9%,22.5%,34.1%,-5.8%,86.7%,105%,114%,120%,102%
